PubChem BioAssay AID540256 (National Center for Advancing Translational Sciences (NCATS), 2011)
Screen size: about 300,000 compounds; about 3,700 (1.2%) were called active. Inconclusive results, whose numbers are uncertain, are shown with a selection of clear calls. Calls come from the whole dose curve; tested in HEK293 cells. Where the call is inconclusive, the potency comes from a doubtful curve fit.

Assay: qHTS for Inhibitors of binding or entry into cells for Lassa Virus; note: nearly all actives have a fitted effect of over 50% in size
Conditions: Lassa virus pseudotype entry inhibition, cell reporter; activity change, negative = inhibition: at 37.9 µM (top of the series) unless noted
% is set by controls: 0 for no effect and ±100 for the full control effect; potency is the fitted concentration of half-maximal effect.

Structure (SMILES)	activity change, negative = inhibition	Potency
CCCCn1cc(S(=O)(=O)c2ccc(OC)cc2)c(=O)c2cc(CC)ccc21	inactive: -19.7% [at 46.1 µM]	–
O=C1COc2ccc(C(=O)COC(=O)Cc3ccccc3)cc2N1	–	inconclusive: 3.55 µM [inhibitor, partial curve, poor fit]
COc1ccc(N=C(C)C2=C(O)c3ccccc3C2=O)cc1	–	inconclusive: 4.47 µM [inhibitor, full curve, poor fit]
CC(=O)c1ccccc1OCCOc1ncnc2sccc12	–	inconclusive: 1.26 µM [inhibitor, single point]
COCCN1CCN(C(=O)c2cc(COc3ccc(F)cc3F)on2)CC1	–	inconclusive: 7.94 µM [inhibitor, partial curve, poor fit]
Cc1c(C)n(C(=O)CN2CCN(c3ccccn3)CC2)c2ccccc12	inactive: 8.6%	–
COc1ccc(-c2nnc(SCC(=O)N(Cc3ccccc3)C(C)(C)C)o2)cc1OC	–	inconclusive: 29.1 µM [inhibitor, single point]
CNc1ccccc1C(C)(C)c1cc(-c2cccc(Br)c2)no1	–	inconclusive: 7.94 µM [inhibitor, partial curve, poor fit]
O=C(CSc1nnc(-c2cc3ccccc3cc2O)n1Cc1ccco1)N1CCc2ccccc2C1	–	inconclusive: 32.6 µM [inhibitor, single point]
O=C1CN(C(=O)c2cccc(Br)c2)c2ccccc2N1	–	inconclusive: 0.708 µM [inhibitor, single point]
O=C(O)CCSc1nnc(-c2ccc3c(c2)OCO3)o1	–	inconclusive: 18.3 µM [inhibitor, partial curve, poor fit]
O=C(CNCC1CCCO1)NCc1ccco1 (stereo unspecified)	inactive: -0.853%	–
COc1ccc2nc(NC(=O)CSCC(=O)Nc3cc(C)on3)sc2c1	–	inconclusive: 31.6 µM [inhibitor, single point]
O=C(O)c1ccc(-n2cccn2)c([N+](=O)[O-])c1	–	inconclusive: 3.55 µM [activator, single point]
N#CC1=C2SCC(O)(c3ccccc3)N2C(=O)CC1c1ccccc1F (stereo unspecified)	–	inconclusive: 4.61 µM [inhibitor, full curve]
O=C(CNS(=O)(=O)c1ccc(Br)s1)NCc1ccccc1	–	inconclusive: 35.5 µM [activator, single point]
CCOc1ccccc1C(=O)NCC(=O)NCCSc1ccc(Br)cc1	–	inconclusive: 35.5 µM [inhibitor, single point]
CCOc1ccc(Cc2c(C)[nH]c3ccc(C(=O)O)cc3c2=S)cc1	–	inconclusive: 7.94 µM [inhibitor, partial curve, poor fit]
Cc1ccc(S(=O)(=O)NCC(c2ccco2)S(=O)(=O)c2ccccc2)cc1 (stereo unspecified)	–	inconclusive: 39.8 µM [inhibitor, partial curve, poor fit]
CCN(CC)S(=O)(=O)c1cccc(NC(=O)COC(=O)CCC(=O)c2ccc(F)cc2)c1	inactive: -0.326%	–
O=c1oc2ccccc2cc1-c1cn(-c2ccccc2)c(=S)[nH]1	–	active: 0.891 µM
Cc1ccc(OCCCCn2nnc3sc4c(c3c2=O)CCCC4)cc1	inactive: -18.2% [at 46.1 µM]	–

Structure (SMILES)	activity change, negative = inhibition	Potency
COc1ccc(-c2c(-c3ccc(OC)c(C)c3O)n[nH]c2C)cc1	–	inconclusive: 0.562 µM [inhibitor, full curve, poor fit]
O=C(COC(=O)c1cccnc1)c1ccc(Cl)c(Cl)c1	–	inconclusive: 35.5 µM [activator, partial curve, poor fit]
C[C@@H](N)[C@@H](O)c1ccc(O)c(O)c1	–	inconclusive: 0.0022 µM [inhibitor, full curve, poor fit]
CCNC(=S)Nc1ccc(Cl)cc1Cl	–	inconclusive: 4.11 µM [inhibitor, single point]
COc1ccc(/C=N/n2cnnc2SCc2ccc(OC)cc2)cc1	–	active: 2.51 µM
CCn1c(=O)c2c(nc3n2CC(C)CN3CCc2ccccc2)n(C)c1=O (stereo unspecified)	–	inconclusive: 20.6 µM [inhibitor, single point]
CCN(CC)C(=O)CSC1=C(C#N)C(c2ccco2)C(C(=O)OCCOC)=C(C)N1 (stereo unspecified)	–	inactive
CC(=O)N1CCc2nc3sc(C(=O)c4ccc(F)cc4)c(N)c3c(C(F)(F)F)c2C1	–	inconclusive: 35.5 µM [inhibitor, single point]
Cc1oc2nc(SCC(=O)NC3CCCCC3)nc(N)c2c1C	–	inconclusive: 8.91 µM [inhibitor, partial curve]
CN(C)CCNC(=O)C12CC3(C)CC(C)(CC(C)(C3)C1)C2	–	inconclusive: 1.16 µM [activator, full curve, poor fit]
Cc1sc(NC(=O)COc2cccc(-n3cnnn3)c2)c(C#N)c1C	inactive: -7.56%	–
COC(=O)C/C=C/[C@@H](C)[C@@H](/C=N/OC[C@H]1O[C@H](c2ccccc2)C=C[C@@H]1Oc1ccc(OC)cc1)NS(=O)(=O)c1ccc(C)cc1	–	inconclusive: 16.4 µM [inhibitor, partial curve]
Cc1ccc(C(=O)Nc2ccc(S(=O)(=O)N3CCC(c4nc5ccccc5s4)CC3)cc2)cc1	inactive: 23.7% [at 46.1 µM]	–
CC(C)CCSc1nc2ccccc2[nH]1	–	inconclusive: 3.55 µM [activator, single point]
C[C@@H]1COc2cccc(N3CCCC3)c2S(=O)(=O)N1	–	inconclusive: 0.0223 µM [activator, full curve, poor fit]
CC1=CC(=C2C(=O)c3ccccc3C2=O)C=C(C)N1C	–	inconclusive: 1.26 µM [activator, single point]
COc1ccc(C(=O)CCN2CCN(c3ccccc3OC)CC2)cc1	inactive: 18.6%	–
CC(C)(C)c1ccc(C(=O)Nc2ccc3c(c2)CCCN3C(=O)c2cccs2)cc1	–	inconclusive: 1.12 µM [inhibitor, full curve, poor fit]
CCCOc1cccc(C(=O)N(Cc2ccccc2)C2CCS(=O)(=O)C2)c1 (stereo unspecified)	–	inconclusive: 0.794 µM [inhibitor, full curve, poor fit]
CCOC(=O)CC(NC(=O)Cn1nnc(-c2ccccc2)n1)c1ccc(OC)cc1 (stereo unspecified)	inactive: -27.2% [at 46.1 µM]	–
O=[N+]([O-])c1ccc2oc(C3CCCCC3)nc2c1	–	inconclusive: 35.5 µM [activator, single point]
Cc1cccc(N/N=C/c2ccncc2)c1	–	inconclusive: 10 µM [activator, partial curve, poor fit]

Structure (SMILES)	activity change, negative = inhibition	Potency
O=[N+]([O-])c1ccccc1C=NNC(=S)NN=Cc1ccccc1[N+](=O)[O-]	–	inconclusive: 11.2 µM [inhibitor, partial curve, poor fit]
Cc1occc1-c1nnc(SCCCC(=O)c2ccc(F)cc2)n1C	inactive: -10.8%	–
CCOc1ccccc1Nc1sc(C(=O)c2ccccc2)c(N)c1C(=O)Nc1ccccc1	–	inconclusive: 35.5 µM [inhibitor, single point]
Cc1noc(C)c1CSc1nc2sc3c(c2c(=O)n1C)CCCC3	inactive: 5.25%	–
CCN1C(=O)c2ccccc2Sc2ccc(C(=O)O)cc21	inactive: 5.62% [at 46.1 µM]	–
Cn1cc(/C=N/n2cnc3scc(-c4ccc(Cl)cc4)c3c2=O)c2ccccc21	–	inconclusive: 0.92 µM [inhibitor, partial curve]
CC(=O)c1cc(-c2ccccc2)n(CCC(=O)NCc2ccc(C)cc2)c1C	inactive: -11.8% [at 46.1 µM]	–
CC(Oc1cccc(Cl)c1)C(=O)Nc1cc(S(=O)(=O)N2CCCCC2)ccc1N1CCOCC1 (stereo unspecified)	–	inconclusive: 11.2 µM [inhibitor, partial curve]
COc1ccc(C(C)=O)cc1COC(=O)Cn1cnc2ccccc2c1=O	–	inconclusive: 0.146 µM [inhibitor, full curve, poor fit]
COc1cc(/C=C2\CC/C(=C\c3cc(OC)c(O)c(OC)c3)C2=O)cc(OC)c1O	inactive: -23%	–
COC(=O)C1=CN(Cc2ccc(OC)c(OC)c2)C=C(C(=O)OC)C1c1cccc(OC)c1OC	–	inconclusive: 35.5 µM [inhibitor, single point]
CC(NCc1ccccc1Cl)C(=O)Nc1ccc(S(=O)(=O)N2CCCC2)cc1 (stereo unspecified)	–	inconclusive: 35.5 µM [inhibitor, single point]
O=C(Cn1nnc(-c2ccc(N3CCOCC3)cc2)n1)OC1CCCCC1	–	inconclusive: 25.9 µM [inhibitor, single point]
CC1CNCCN1c1ccc(Cl)cc1 (stereo unspecified)	–	inconclusive: 31.6 µM [activator, single point]
COc1cc(/C=N/NC(=O)C2C3CCCCC32C)cc(Br)c1O (stereo unspecified)	–	inconclusive: 3.55 µM [inhibitor, single point]
Cc1ccc(-c2ccc(CN3C(CC(C)C)C(=O)N(Cc4cn(CC5CCCCC5)nn4)CCS3(=O)=O)cc2)cc1 (stereo unspecified)	–	inconclusive: 0.0089 µM [inhibitor, full curve, poor fit]
C/C(=N\NC(=O)c1ccc(OC2CCCC2)cc1)c1ccc(C)s1	–	inconclusive: 11.6 µM [inhibitor, partial curve, poor fit]
Cc1ccc(-c2cc(C(=O)NCc3ccco3)no2)cc1	–	inconclusive: 3.66 µM [activator, partial curve, poor fit]
Cc1cc(-c2csc(NC(=O)c3cccc(S(=O)(=O)N(C)C)c3)n2)c(C)n1-c1ccccc1	inactive: -0.928%	–
COc1cccc(NC(=O)N2C3CCCC2CC(NC(=O)C2CC2)C3)c1 (stereo unspecified)	inactive: -5.6% [at 46.1 µM]	–
O=C(Nc1cccc(S(=O)(=O)N2CCCC2)c1)c1cc(-c2ccccn2)nc2ccccc12	–	inconclusive: 2 µM [inhibitor, full curve, poor fit]
COc1ccc(S(=O)(=O)Nc2cc3c4c(oc3c3ccccc23)CC(C)(C)CC4=O)cc1	–	inconclusive: 18.3 µM [inhibitor, single point]

Quoted at random: 5 records from the list
Structure (SMILES)	activity change, negative = inhibition	Potency
CCN1C(=O)c2ccccc2Sc2ccc(C(=O)O)cc21	inactive: 5.62% [at 46.1 µM]	–
COc1ccc(S(=O)(=O)Nc2cc3c4c(oc3c3ccccc23)CC(C)(C)CC4=O)cc1	–	inconclusive: 18.3 µM [inhibitor, single point]
COc1ccc(C(C)=O)cc1COC(=O)Cn1cnc2ccccc2c1=O	–	inconclusive: 0.146 µM [inhibitor, full curve, poor fit]
CC1CNCCN1c1ccc(Cl)cc1 (stereo unspecified)	–	inconclusive: 31.6 µM [activator, single point]
COc1cccc(NC(=O)N2C3CCCC2CC(NC(=O)C2CC2)C3)c1 (stereo unspecified)	inactive: -5.6% [at 46.1 µM]	–
